Results deposited as PubChem BioAssay AID602196 (INSERM, 2012).
Purpose: 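Modifiers of cisplatin sensitivity in A549 cells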. System: human A549 lung cancer cells. Reagent: siRNA pair against human genes. Time to read-out: 48 h transfection before cisplatin; time from cisplatin to read-out not stated. Challenge: cisplatin at a dose killing half of control-siRNA cells; exact dose and duration not given. Measured: 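Cisplatin cell death as a shift from the 50% death seen with control siRNA; siRNAs toxic or growth-blocking alone scored 0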. Reading the numbers: two-siRNA summed score (-2 to +2): higher = both siRNAs protect from cisplatin killing; -2 means both sensitise; mean protection from cisplatin (shift in death) and protection from cisplatin (shift in death), siRNA C and protection from cisplatin (shift in death), siRNA D: higher = protection from cisplatin killing. Rule for the call: 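siRNAs harmful alone (LDH or WST-1) get 0; others get +1 for less and -1 for more cisplatin killing; genes are active when the two siRNAs give the same sign, summing to ±2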. Meaning of the calls: active = both siRNAs shift cisplatin killing the same way; inactive = no consistent shift, or siRNA harmful alone.
Shown is a random part of about 23,000 reagents. 455 of all reagents (2%) were called active. 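Active includes both protection and sensitisation; some change values fall well beyond the stated -50 to +50 range.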 Unmarked entries are inactive. The numbers tell different reagents against one gene apart. No sequences are given here. Not stated in the record: the amount of reagent.

| Target gene | reagent no. | two-siRNA summed score (-2 to +2) | mean protection from cisplatin (shift in death) (%) | protection from cisplatin (shift in death), siRNA C (%) | protection from cisplatin (shift in death), siRNA D (%) |
| --- | --- | --- | --- | --- | --- |
| MYCNOS | 1 | 0 | 8.9 | 1.3 | 16.6 |
| LOC340246 | 1 | 0 | 7.7 | 5 | 10.4 |
| CALCA | 1 | -1 | -17.2 | -3.6 | -30.7 |
| HCRTR2 | 1 | 0 | 5.2 | 3.4 | 7 |
| UBE2V1 | 1 | 0 | -3.9 | -3.9 | -3.9 |
| PALLD | 1 | 0 | 9.2 | 11.1 | 7.3 |
| OR5L2 | 1 | 0 | 3.2 | 6.8 | -0.5 |
| ANKRD19P | 1 | 1 | 10.9 | 10.7 | 11 |
| ZBTB25 | 1 | -2 (active) | -17.6 | -24.2 | -11 |
| LOC440790 | 1 | 0 | -0.3 | -3.1 | 2.5 |
| GPR155 | 1 | 1 | 18.8 | 22.4 | 15.2 |
| PCSK1 | 1 | 1 | 17.9 | 13.5 | 22.3 |
| NAA40 | 1 | 0 | 7.4 | 13.6 | 1.2 |
| ARHGAP4 | 1 | 1 | 14.3 | 10 | 18.6 |
| NAE1 | 1 | 0 | 4.9 | -6.6 | 16.4 |
| NAE1 | 2 | 0 | 6 | -2 | 13.9 |
| LOC441230 | 1 | 0 | -3.8 | -4.5 | -3.1 |
| PRF1 | 1 | 0 | -2 | -11.8 | 7.8 |
| LOC440268 | 1 | 0 | 18.7 | 18.2 | 19.2 |
| TMEM42 | 1 | 0 | 4.7 | 13.1 | -3.7 |
| LOC343705 | 1 | 0 | -4.8 | -5.4 | -4.1 |
| SIRPB2 | 1 | 0 | 5.8 | 10.1 | 1.5 |
| LRRC75B | 1 | 0 | 2.7 | 1.9 | 3.6 |
| ADORA1 | 1 | -1 | -17.8 | -20.2 | -15.3 |
| LOC442626 | 1 | 0 | 17.9 | 4.7 | 31.1 |
| GPATCH2 | 1 | 0 | 4.5 | 11.3 | -2.3 |
| HPGDS | 1 | 0 | 6.6 | 12.3 | 0.8 |
| ICE1 | 1 | 0 | 5.1 | 5.7 | 4.6 |
| TDRD1 | 1 | 0 | -4 | -7.6 | -0.3 |
| MGC26143 | 1 | 0 | 8.5 | 13.8 | 3.1 |
| SRBD1 | 1 | 0 | -1.3 | -10.3 | 7.6 |
| APPL2 | 1 | -1 | -9 | -3.3 | -14.7 |
| ENAM | 1 | 2 (active) | 21.1 | 15.8 | 26.3 |
| GPR82 | 1 | 1 | 8.2 | -11.1 | 27.6 |
| IGFBP3 | 1 | 0 | -1 | -14.3 | 12.3 |
| VMA12 | 1 | -1 | -9.3 | -14.7 | -3.8 |
| TULP2 | 1 | 0 | -1.8 | -7.7 | 4.1 |
| FBLN7 | 1 | -1 | 20.3 | -12.2 | 52.7 |
| GPI | 1 | -1 | -8.6 | -19.3 | 2.2 |
| PRELID1P6 | 1 | 1 | 13.8 | 32.2 | -4.7 |
| DOCK5 | 1 | 0 | 4.5 | 10.6 | -1.7 |
| MICAL1 | 1 | 0 | 8.1 | 16 | 0.2 |
| SEC63 | 1 | 1 | 9.9 | 10.8 | 9 |
| CAPN13 | 1 | 1 | 5.2 | 9 | 1.3 |
| APOL2 | 1 | -1 | -14 | -4.8 | -23.2 |
| SSUH2 | 1 | 0 | -6.7 | -8.4 | -4.9 |
| BASP1 | 1 | 0 | 17.9 | 22.2 | 13.7 |
| LOC440823 | 1 | 1 | 15.3 | 16.9 | 13.7 |
| LOC391248 | 1 | 0 | 1 | -8 | 10 |
| LOC441030 | 1 | 0 | 1.1 | 5.3 | -3.1 |
| HINT2 | 1 | 0 | 9.6 | 0.2 | 19.1 |
| CASP7 | 1 | 1 | 8.1 | -9.7 | 25.9 |
| COL9A3 | 1 | 0 | -2 | -0.5 | -3.4 |
| LOC286355 | 1 | 0 | 14.4 | 19 | 9.8 |
| HSPBP1 | 1 | 1 | 1.4 | -13.6 | 16.4 |
| LDC1P | 1 | 0 | 0.8 | -9.4 | 11.1 |
| PAAF1 | 1 | 0 | 12.3 | 17.1 | 7.6 |
